The source of these data is publication PMC7819943, “Rice protein-binding microarrays: a tool to detect cis-acting elements near promoter regions in rice”.

Sequences of proteins named here, by UniProt entry; tags and fusion partners are left off.
UniProt Q0JBA9, entry or part of it: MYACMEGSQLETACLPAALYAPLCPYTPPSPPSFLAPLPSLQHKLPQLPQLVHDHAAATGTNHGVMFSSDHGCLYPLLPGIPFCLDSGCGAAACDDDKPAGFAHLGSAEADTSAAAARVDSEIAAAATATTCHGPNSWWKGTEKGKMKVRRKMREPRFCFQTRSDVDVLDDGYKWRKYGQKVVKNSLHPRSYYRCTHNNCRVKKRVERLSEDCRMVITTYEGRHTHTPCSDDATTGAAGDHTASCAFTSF

This is one part of the list.

This assay has as its target OsWRKY34 (Oryza sativa, UniProt Q0JBA9 1-250). As to the kind of experiment: protein-binding microarray (RPBM); PBS, 2% BSA, 51.3 ng/ul salmon testes DNA, 50 uM zinc acetate, 200 nM TF, 25 C, 1 h; high values mean tight binding. To be noted: protein: recombinant; tags: N-terminal polyhistidine and DsRed monomer fusion (pET32a); label: CyDye5-dUTP incorporated in the synthesized complementary strand; 3' TTTTT single-stranded linker to array surface; dsDNA, one strand shown. Summed up: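 Binding signal here means per-feature fluorescence intensity in arbitrary units. The values were read on an Axon 4000B scanner after a custom Agilent array, double-stranded by primer extension with Cy5-dUTP, was incubated with 200 nM protein at 25 °C for 1 h in PBS with 2% BSA, salmon testes DNA and 50 µM zinc acetate, then washed. The proteins were transcription factors with an N-terminal polyhistidine tag and DsRed, expressed in E. coli BL21-CodonPlus and purified on Ni–NTA.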
For “TCTTGGTTTTTTGCATTGTTTCCTCCCGATTTGTCTTCCTCGGAGTCACCTAGTGCAG”, the binding signal is 13100 fluorescence intensity (a.u.). Under “ATTGTGTGCAACTTTTGTTATGTGTCTGTCCTCCATCTTCCGGAGTCACCTAGTGCAG” stands 10800 fluorescence intensity (a.u.); under “AGAGTGTTTTGTGTTTTTTAGTGTTATTAAAGAAGTTGTTCGGAGTCACCTAGTGCAG”, 8500 fluorescence intensity (a.u.); under “CTTGCCACATCATTTTTCATTCTAGGTGACAGCTTATTTACGGAGTCACCTAGTGCAG”, 9390 fluorescence intensity (a.u.). Under “TCACACCTCCTCCTTTCTCTAGCACTCTTTCGTTCGTGTCCGGAGTCACCTAGTGCAG” stands 8600 fluorescence intensity (a.u.); under “GGTTTCCTTTTGTCCTTTCAGATCTCTCTCTCTCTCTCTCCGGAGTCACCTAGTGCAG”, 11400 fluorescence intensity (a.u.). Under “GTTATTTATAAATTTGATAGTATCCTGATTTTATGATTGTCGGAGTCACCTAGTGCAG” stands 10300 fluorescence intensity (a.u.). On to “TGAGTCTTCACAATCCCATGTCACATGATCATGTGATCTTCGGAGTCACCTAGTGCAG”, for which the binding signal is 9860 fluorescence intensity (a.u.).

As to “CCCGCGCGCCATCATATCGTCCTCGAGCCCCGTGCGCCATCGGAGTCACCTAGTGCAG”, the binding signal was 10200 fluorescence intensity (a.u.).

Take “TCTCACTCTCGAGCCATCGTCTTCAGCTCGCTCATTACTGCGGAGTCACCTAGTGCAG”: the binding signal was 9030 fluorescence intensity (a.u.). Under “TACTCCTTATATTCCTTCATTTTTCAGCCTCGATCAGCTCCGGAGTCACCTAGTGCAG” stands 8130 fluorescence intensity (a.u.).

Consider “CTCCCTCCTCCTGCCTCGCGCCACCTTCGCCGCCACCACCCGGAGTCACCTAGTGCAG”, for which the binding signal is 8530 fluorescence intensity (a.u.). Take “CATTTAGCTAAAAGAACATATCTTCATCTTATATTTCTTTCGGAGTCACCTAGTGCAG”: the binding signal was 8990 fluorescence intensity (a.u.).

For the sequence “TACATATCCGCTTTTCAGCCTATCCAGTTTGATTAAGAAACGGAGTCACCTAGTGCAG”, the binding signal is 8330 fluorescence intensity (a.u.). Under “TATACCTTTTCAGCTCTGTTTCGAAGAAAGATTTTTCTTTCGGAGTCACCTAGTGCAG” stands 8180 fluorescence intensity (a.u.). On to “TTGGATCTGCTCTCTGTTCTTATCGCTGTGCGTGTGTGTGCGGAGTCACCTAGTGCAG”, for which the binding signal is 8320 fluorescence intensity (a.u.).

As to “ATTGGTCAAATTTTAAATATTGATTTGCTTAGACTTCTTACGGAGTCACCTAGTGCAG”, the binding signal is 8170 fluorescence intensity (a.u.). Under “CCTCTCTTTCTCTCACTCTCTGTGACTCTTGTCTTTTTGTCGGAGTCACCTAGTGCAG” stands 8390 fluorescence intensity (a.u.). Under “GCTTGAGCTGCTTGTTCTTCTTCTACCTCCTGCACTCGCGCGGAGTCACCTAGTGCAG” stands 8340 fluorescence intensity (a.u.); under “CTCTCTCTCTCTCTCTCTATAGCTTTGCTTGATCATATCACGGAGTCACCTAGTGCAG”, 9810 fluorescence intensity (a.u.). On to “TCGTGTCTTCTATTTTGCTCAATTTTGAAAATTAACGTTCCGGAGTCACCTAGTGCAG”, for which the binding signal is 9220 fluorescence intensity (a.u.). The result for “TTTCTCCATACTCCATACATTACCCTGAATATTATTTTATCGGAGTCACCTAGTGCAG” reads 9800 fluorescence intensity (a.u.); that for “TCAGCTGCCACAAGCCTCAATTGTGCCACTTCATTCATTGCGGAGTCACCTAGTGCAG”, 8270 fluorescence intensity (a.u.).
